Results are given in words; binding and its absence hold for the method and conditions named. Binding seen in cells or lysates may run through a third protein. Binding can be weak; no strength is given. Tags and fused reporters may be left off the sequences shown.
Target: T1, GST-fused RUNX2 C-terminal fragment (230-499 aa) (UniProt Q13950)
T1 sequence: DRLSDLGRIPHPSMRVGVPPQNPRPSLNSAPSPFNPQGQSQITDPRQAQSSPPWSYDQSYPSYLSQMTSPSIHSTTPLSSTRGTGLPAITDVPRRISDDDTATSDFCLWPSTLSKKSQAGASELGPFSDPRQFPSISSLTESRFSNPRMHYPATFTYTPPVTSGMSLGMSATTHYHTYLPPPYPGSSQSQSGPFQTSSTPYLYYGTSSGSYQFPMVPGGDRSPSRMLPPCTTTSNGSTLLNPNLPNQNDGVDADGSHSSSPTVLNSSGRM
Assay: pull-down; about 5 ug GST-fused protein (from BL21 E. coli) with 25 uL glutathione-Sepharose beads mixed with 40 uL in vitro transcribed/translated product, 4 C, 2 h; five washes with binding buffer; western blot; only the target purified

binding: binds
Substance: in vitro transcribed/translated CUL4B
